According to PubChem BioAssay:
The list shows a part of the results. Entries with a potency or affinity are not part of this list. The source made no clear call on entries shown without one.

Assay: Polyglutamine toxicity reduction dose response, whole organism Drosophila SCA1 model (AID 1595)
Conditions: at 1 µM, stronger effect = higher value

Row | SMILES | suppression of toxicity
1 | CCCN(CCC)C(=O)C(CCC(=O)O)NC(=O)c1ccccc1 (configuration not stated) | 11.4
2 | NS(=O)(=O)c1cc2c(cc1Cl)NC(C(Cl)Cl)NS2(=O)=O (configuration not stated) | 1.43
3 | COc1cc2c(c(OC)c1OC)-c1ccc(OC)c(=O)cc1[C@@H](NC(C)=O)CC2 | 0
4 | CC(Cc1ccc(O)c(O)c1)(NN)C(=O)O (configuration not stated) | 0
5 | CN1C(CC(=O)c2ccccc2)CCCC1CC(O)c1ccccc1 (configuration not stated) | 0
6 | COc1cccc(C(=O)c2ccccc2O)c1O | 0
7 | Clc1cc(Cl)c(OCC#CI)cc1Cl | 5.71
8 | NC(N)=Nc1nc(CSCC/C(N)=N\S(N)(=O)=O)cs1 | 4.29
9 | O=C1c2c(O)cccc2Cc2cccc(O)c21 | 0
10 | CC(=O)OCC(=O)[C@@]12OC(C)(C)O[C@@H]1C[C@H]1C3C[C@H](F)C4=CC(=O)C=CC4(C)[C@@]3(F)[C@@H](O)C[C@@]12C (some centres not stated) | 0
11 | C[C@H](CCC(=O)O)[C@H]1CCC2C3C(CC[C@@]21C)[C@@]1(C)CC[C@@H](O)C[C@H]1C[C@H]3O (some centres not stated) | 14.3
12 | CNCCC=C1c2ccccc2CCc2ccccc21 | 0
13 | CC(C(=O)O)c1ccc(C(=O)c2cccs2)cc1 (configuration not stated) | 5.71
14 | COc1ccc([C@@H]2CC(=O)c3c(O)cc(O)cc3O2)cc1O | 0
15 | CC(=C(CCOP(=O)(O)O)SC(=O)c1ccccc1)N(C=O)Cc1cnc(C)nc1N | 7.14
16 | COC(=O)[C@H]1[C@H]2C[C@@H]3c4[nH]c5cc(OC)ccc5c4CCN3C[C@H]2C[C@@H](OC(=O)c2cc(OC)c(OC)c(OC)c2)[C@@H]1OC | 1.43
17 | CC12CCC(CC1=O)C2(C)C (configuration not stated) | 1.43

Another view of two compounds above.
Row	SMILES	suppression of toxicity
11	C[C@H](CCC(=O)O)[C@H]1CCC2C3C(CC[C@@]21C)[C@@]1(C)CC[C@@H](O)C[C@H]1C[C@H]3O (some centres not stated)	14.3
12	CNCCC=C1c2ccccc2CCc2ccccc21	0
